# PubChem BioAssay AID504784 – Drosophila RNAi Screening Center, 2011
# Purpose: 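Fly genes whose silencing alters how much lipid cells keep in droplets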 (primary screen)
# Cells: Drosophila Kc167 embryonic cells
# Knock-down reagent: long dsRNA against Drosophila genes, about 250 ng dsRNA per well
# Time to read-out: 4 days
# Challenge: cells fed 400 µM oleic acid bound to BSA
# Read-out: 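Cells imaged and segmented; ratio of lipid droplet area to nuclear area, log-transformed, then normalised as a B-score over the screen; higher means more stored lipid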
# Scale: droplet/nuclear area B-score: higher = more stored lipid (overstorage)
# The deposit covers about 17,000 reagents; below is an unselected part of those that have a named target and a result. 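Each column is one replicate's B-score; the combined score over replicates was not deposited, so single values may mislead.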 The numbers tell different reagents against one gene apart. Not all columns of the deposit are shown.
predicted target,reagent,"droplet/nuclear area B-score, replicate 1"
CG13311,1,-1.12
CG30281,1,0.658
Ras64B,1,-0.982
dmrt99B,1,0.465
dmrt99B,2,1.79
CG6508,1,0.93
CG1663,1,-1.08
CG1663,2,0.331
CG32432,1,-1
CG32432,2,1.83
CG32432,3,-0.00875
CG43386,1,2.69
l(2)gl,1,-0.872
CG31327,1,-0.335
Or24a,1,0.447
Prat2,1,0.206
CG15080,1,0.0638
Rrp4,1,-0.316
Est-Q,1,0.142
Men,1,0.644
Men,2,1.18
Men,3,0.00489
CG1138,1,-0.666
snu,1,-0.239
CG15201,1,0.226
Cds,1,-0.456
CG10222,1,0.0442
betaTry,1,-0.578
betaTry,2,-1.8
Gr61a,1,-1.46
lsn,1,0.875
CheA75a,1,0.318
CG9284 (retired record),1,0.00608
CG9284 (retired record),2,0.188

Laid out differently: entries from further up.
Rrp4 | droplet/nuclear area B-score, replicate 1 = -0.316
Est-Q | droplet/nuclear area B-score, replicate 1 = 0.142
Men #1 | droplet/nuclear area B-score, replicate 1 = 0.644
Men #2 | droplet/nuclear area B-score, replicate 1 = 1.18
Men #3 | droplet/nuclear area B-score, replicate 1 = 0.00489
CG1138 | droplet/nuclear area B-score, replicate 1 = -0.666
